Here are results for 107 sequences from PubChem BioAssay AID1347426 (Functional Genomics Laboratory (NCATS/FGL), 2020).

In all, about 31,000 sequences went through this assay and about 1,400 (4.5%) were called active.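 Rule for the calls: active = median seed-adjusted z-score above 1 or below -1; inactive = the rest.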 The list shows a part of the results.

The nature of the test: Novel Modifiers of Survival Motor Neuron (SMN) Protein: Gene Identification via Genome-wide siRNA Screen.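 Note: luminescence tracks full-length SMN protein made from the SMN2 reporter.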 As to conditions: HEK293T SMN2-luciferase reporter, siRNA knockdown, 72 h; actives lie on both sides. The method in brief:
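Steps: spot 1 pmol siRNA, add Lipofectamine RNAiMax in serum-free DMEM, seed HEK293T SMN2–luciferase reporter cells; incubate 72 h at 37 °C; add ONE-Glo; normalize luminescence to control siRNA, log10, MAD. Candidates: |MAD| > 1.0.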
In general terms: Reporter assays use an easily measured gene product as a stand-in for the process of interest.
On to CGGCAUGCUUUGAUCCUCATT against CMKLR1, for which the median seed-adjusted z-score was inactive: -0.704.

As for ACCAGUCCGUGAUCAAGAATT against TFAP2E, the median seed-adjusted z-score is inactive: 0.243. For the sequence AGAAGAUUCUUGUAUUUAUTT against IL24, the median seed-adjusted z-score was inactive: -0.125. The same measure for GCUAGAUAAUGUCAAACAATT against TIMM44: inactive: -0.569.

With GCAUGUACGACCAAUGUAATT against NR3C1, the median seed-adjusted z-score was inactive: -0.47. Consider GCUACAGAGACAAUGCUUATT against PCMTD1, for which the median seed-adjusted z-score was inactive: 0.0312. To GCAACAUCCUCAUUGUAUUTT against MCHR2 belongs inactive: -0.658. Turning to GACCGAGAGUUGGUGGUUATT against ESRRG, the median seed-adjusted z-score is inactive: -0.681. Consider GCUACAUCAUGGGCCGAUUTT against FOXS1, for which the median seed-adjusted z-score is inactive: 0. Turning to AAACAAUGGUUUGUGCAAATT against UCRC, the median seed-adjusted z-score was inactive: -0.93.

GAUCCAUGAUGACAUAGAATT against TFDP2: the median seed-adjusted z-score is inactive: 0.85. For the sequence GCUUGAUGCUAAACCCUCATT against PCGF1, the median seed-adjusted z-score was inactive: 0.508. The same measure for GAAUGAUCCUGGGUAACAATT against RAB8B: inactive: -0.259; for GCCUAUAACUUGAGGGUUATT against DCHS1: inactive: 0.565. Regarding GGUAAAGUUUUACAGCAUUTT against MTCH2, the median seed-adjusted z-score is inactive: -0.168. As to GGAGUUUAAAGUUCAGGAATT against RAD1, the median seed-adjusted z-score was inactive: -0.71. Take AGUGUUCCCGAUUUACUAATT against OLIG1: the median seed-adjusted z-score was inactive: -0.387. For the sequence AGAAUUUGCUGGACCAUUUTT against NPPA, the median seed-adjusted z-score was inactive: -0.897. Consider CAAUCUCUAGUCUAAAAGATT against PDLIM5, for which the median seed-adjusted z-score is inactive: 0.439.

Consider CGCAACUCUUUACACCGUATT against SAMHD1, for which the median seed-adjusted z-score is active: -1.33. For GGAAUGCUAAGUUCCGAGATT against ARFGAP1, the median seed-adjusted z-score was inactive: 0.123. The same measure for GAUCGUAUUCUGUAAGUGATT against BAI3: inactive: 0.0657.

As to GGAUGAACCUGAACCACGATT against ADAD1, the median seed-adjusted z-score is inactive: -0.0795. The same measure for GCGGAAAAGCUGUAUCUAUTT against POLR3E: inactive: -0.55; for GGAAACUUCUUCUACCUGATT against RSU1: inactive: 0.176; for AACCAUCCAUUGGAUCAAATT against RAE1: inactive: 0.929. On to GGUGUAACCGAUUCACUAUTT against GCN1L1, for which the median seed-adjusted z-score was inactive: 0.0513. Regarding GGUAUGGAUUGAUGCCGCATT against SLC6A2, the median seed-adjusted z-score is inactive: 0. The same measure for GCAUGUGCAUUUCCUAACUTT against ESRRB: inactive: -0.611; for CGGUUACAUUUACUUCGUATT against SCN11A: inactive: 0.196. On to GGAUCUGCACAGUCUUCUATT against PSKH2, for which the median seed-adjusted z-score is inactive: 0.0439. Turning to GAGCUUUCAAGGAUAGGCUTT against HBG1, the median seed-adjusted z-score was inactive: -0.716. To GCACGACCUUCAGCACAUUTT against ALX3 belongs inactive: -0.0707; to GGAAUGUGCUGGUCGGAGATT against TIE1, inactive: 0.0629; to AACCGAUUCUAUGACAAUATT against SLC6A1, inactive: -0.122. In the case of GCAAUUGUGGUAUUAGGAATT against NKIRAS1, the median seed-adjusted z-score is inactive: 0.113. The same measure for GAAACAUAGCAUAAGGUUUTT against WRNIP1: inactive: 0.00972; for AGAGCAUCCUUCUAGCCUATT against MYO7B: inactive: -0.167. Turning to UGCAUAAUAUUGACCCGAATT against ARSB, the median seed-adjusted z-score is inactive: 0.914.

Turning to CAUUACUGUCUGUGGCUAATT against KCNK15, the median seed-adjusted z-score was inactive: -0.218.

For the sequence GGACCAAGCUGAUCGAUGATT against UBR4, the median seed-adjusted z-score was inactive: 0.602. The same measure for CAUCCAAUAUUUUCCCGUATT against DNA2: inactive: 0.0284. To GGAUUCUACGAUUCCGGUUTT against NQO2 belongs inactive: -0.0723. Consider GAAUGUUGUACAGAGCGUGTT against SNCG, for which the median seed-adjusted z-score was inactive: -0.169. The same measure for CAAGCGGAAAGAUAAAGUATT against ADARB2: inactive: -0.249; for CGAGAAGUGUUACUCUUUCTT against CRLF2: inactive: 0.218. To GAAGGGACUUUGUACUGAUTT against VPS11 belongs inactive: 0. With CAGUCUUACUUCCACACCATT against KRT38, the median seed-adjusted z-score was inactive: 0.0884.

GCACCAUCAUCCUAACAUATT against SLC17A2: the median seed-adjusted z-score is inactive: 0.141.

Regarding GCAAUAUCUAUUCACCCAATT against BCL6, the median seed-adjusted z-score was inactive: -0.352. The same measure for CCAGUCACUGCAUAACAUUTT against PSMD9: inactive: 0.266. The same measure for GAAGAAGCUUUGAUAAAGATT against KLHL3: inactive: -0.237; for CUGUGGCUCUUCUCCAACATT against RTN4RL2: inactive: -0.168; for CUUUGACAGUGUUCGUGAATT against SGOL2: inactive: 0.114. The same measure for GGAUUCCCUUCAAGAUAUATT against NUCB2: inactive: 0.45; for CAGAGCCUUUGGGAAUAAATT against PTGER1: inactive: 0.383; for GCUGCUUAAUCUUCGGCAATT against PLCB1: inactive: 0.0735. Regarding GAACCGUCCCAAUCGGUUATT against VCP, the median seed-adjusted z-score is inactive: -0.808. The same measure for GCGCGUUGGUACAAUGGAATT against GOT1: inactive: 0.0103; for GGUGUACUAUUCUCCAGCATT against AKAP1: inactive: 0.182; for GGCUAUGAUCAAAUCCUUATT against SLC17A4: inactive: 0.262.

As to CAAAGAUGGACAAGCCUUATT against INSL4, the median seed-adjusted z-score was inactive: 0.399. Consider CAGAAUAUCCUGAGAAAGATT against AIFM2, for which the median seed-adjusted z-score was inactive: -0.106. To CCUGGUAUUUAGAACAUAATT against ACOXL belongs inactive: 0.53; to CCGCCUUUGUGAUGGAGCATT against FN3K, inactive: -0.508; to CCAGGACAUUCGAAAGCGATT against TRAF4, active: -1.16. To CGACAUCGAAAGUAAAUUUTT against LPL belongs inactive: 0.389; to GCAGGAUUUUCUAUCGAAATT against ITIH2, inactive: 0.262; to GCGAAAAGAGUAUCUAGAATT against CLOCK, inactive: -0.338.

Take GGGAAAGAGUGUGUUCUGATT against HSD11B1L: the median seed-adjusted z-score was inactive: -0.00448.

For GCAAGAACCUCAGUUAUGATT against CDH16, the median seed-adjusted z-score was inactive: -0.209. The same measure for GCUCGAUUUUUGAUCAGUUTT against MPP1: inactive: -0.0762. The same measure for GGUCCUAACUCACUACAAATT against PCDHGB2: inactive: -0.429; for CAACAGCUGUUAAUUGGAATT against VNN2: inactive: -0.583. With GAAAGAGCAAUGAUUUAUUTT against RFPL4B, the median seed-adjusted z-score is inactive: 0.92. As for CCAUGUCUUUCUAUCGCAATT against PLD2, the median seed-adjusted z-score is inactive: -0.743. On to GGACAGACAAGGCAGUUAATT against PRDM4, for which the median seed-adjusted z-score was inactive: 0.0804. The same measure for CGUUUACCAUGACCAUCGATT against APOB: inactive: -0.0862; for CACCGGACCUAUGCAAUUATT against MS4A3: inactive: 0.189.

On to GGUGCACUGCAGUUCAACATT against PIK3CA, for which the median seed-adjusted z-score is inactive: 0.0823.

Consider GACAUAGGUUGGAGAAUAATT against PXK, for which the median seed-adjusted z-score was inactive: -0.4.

As to AACUCUAUCAAGUACAGUATT against CECR1, the median seed-adjusted z-score is inactive: 0.00187. Turning to GAGAGCUGAUUGGAGAUUATT against CDC25B, the median seed-adjusted z-score was inactive: -0.0158. Consider GGAGGGUCCUUAUCGUAGATT against HDAC6, for which the median seed-adjusted z-score is inactive: 0.0457. For CUACUGAUCACAUUCCUAUTT against GFPT1, the median seed-adjusted z-score was inactive: 0.416. As for GCAGUGAAGUUGACAGAUUTT against ZBTB37, the median seed-adjusted z-score was inactive: -0.219. The same measure for UCAUGUCAAUAUUUGGUGATT against UGT2B7: inactive: 0.313; for GAUGAAAGCAUAUACAGCATT against CCR4: inactive: 0. The same measure for GGAAAUUAGAUACCGAGGATT against SLC25A30: inactive: 0; for GGCUUGUGCAGAGAUGAUATT against SERPINI2: inactive: -0.174; for AGAUCGUGCAGGACGGUGATT against RBP1: inactive: 0.321. As to CGAGUGUUUGCUUAACGAATT against ADAMTS9, the median seed-adjusted z-score is inactive: 0.103. GAAGCUCUAGAACCCAAUATT against NPHP1: the median seed-adjusted z-score is inactive: -0.0667. The same measure for AGAUAGAGAAUGCUGAAUATT against DDAH2: inactive: -0.301; for GACUCUAAUAGGAUUGGUATT against NFX1: inactive: -0.256; for GCCUCUACGGAUCAGUUAATT against RAB27A: inactive: -0.134. The same measure for GAUGAAGUAAUAGGAGUUATT against EIF4E3: inactive: 0.

In the case of CCAGGAGAUCUUUGCCUUUTT against SLC4A3, the median seed-adjusted z-score was inactive: -0.7.

On to AGUGUCAUCUCAACUCGAATT against NFIB, for which the median seed-adjusted z-score was inactive: 0.1. On to GGUGAUGAGAUGACCCGUATT against IDH2, for which the median seed-adjusted z-score is inactive: 0.0592. The same measure for GUGCAUUGAUGAGCAAUUATT against TRIM29: inactive: 0.331. The same measure for GGAGACAUCUGACCCAGCATT against ARHGAP9: inactive: 0. On to AGGAGAUUCUGACCAAUGATT against DNAJC12, for which the median seed-adjusted z-score is inactive: 0.248.

Regarding GCAACUUCCUCUCCACUCUTT against ZDHHC18, the median seed-adjusted z-score is inactive: -0.309. Turning to AGGUACUAUUUCUUGAUCATT against REXO4, the median seed-adjusted z-score was inactive: -0.166. The same measure for GGAGUUAAACAUAGAUGUATT against COPS2: inactive: 0.202.

As to CUCAGAGAAUAAUCACAAATT against PER2, the median seed-adjusted z-score is inactive: -0.113.
